Laboratory results as given in PubChem BioAssay AID248 (DTP/NCI, 2004).
The list does not hold the whole screen: its compounds were picked by chemical class. Other doses and runs of a compound may be missing. T/C: endpoint of the treated group in % of that of the vehicle group. Where survival is the endpoint, the PubChem record calls one and a half times the control and up active, and a quarter to a half above the control has no call in these data; cut-offs in other NCI protocols can differ. Some entries show no survivor count and are marked so; the dose need not have been tolerated. Schedule codes are those of the source, taken here to give the interval after Q, in days (D) or hours (H), and the number of doses after X. Some entries hold several experiments; the results are listed from low to high.

Tested on: L1210 leukemia ip in BDF1 mice, survival T/C
Assay: NCI In Vivo Anticancer Drug Screen. Data for tumor model L1210 Leukemia (intraperitoneal) in B6D2F1 (BDF1) mice
Conditions: higher T/C = longer survival

## O=C(O)c1ccc(CN(CCCl)CCCl)cc1
T/C endpoint: mean survival time, dose: 0.76 mg/kg/injection, schedule: Q04DX003 (ip), vehicle: water
  T/C: 115 % of control [survivor count not shown]
T/C endpoint: mean survival time, dose: 0.78 mg/kg/injection, schedule: Q04DX003 (ip), vehicle: water
  T/C: 118 % of control [survivor count not shown]
T/C endpoint: mean survival time, dose: 1.56 mg/kg/injection, schedule: Q04DX003 (ip), vehicle: water
  T/C: 113 [survivor count not shown] and 126 % of control [survivor count not shown]
T/C endpoint: mean survival time, dose: 3.12 mg/kg/injection, schedule: Q04DX003 (ip), vehicle: water
  T/C: 121 [survivor count not shown] and 134 % of control [survivor count not shown]
T/C endpoint: mean survival time, dose: 6.25 mg/kg/injection, schedule: Q04DX003 (ip), vehicle: water
  T/C: 134 % of control [survivor count not shown]

## COc1ccc(C(=O)O)cc1N(CCCl)CCCl
T/C endpoint: mean survival time, dose: 0.2 mg/kg/injection, schedule: Q01DX009 (ip), vehicle: Klucel (hydroxypropylcellulose) (HPC)
  T/C: 101 % of control [survivor count not shown]
T/C endpoint: mean survival time, dose: 0.5 mg/kg/injection, schedule: Q01DX009 (ip), vehicle: Klucel (hydroxypropylcellulose) (HPC)
  T/C: 110 % of control [survivor count not shown]
T/C endpoint: mean survival time, dose: 1.0 mg/kg/injection, schedule: Q01DX009 (ip), vehicle: Klucel (hydroxypropylcellulose) (HPC)
  T/C: 106 % of control [survivor count not shown]
T/C endpoint: mean survival time, dose: 1.2 mg/kg/injection, schedule: Q01DX009 (ip), vehicle: Klucel (hydroxypropylcellulose) (HPC)
  T/C: 97 % of control [survivor count not shown]
T/C endpoint: mean survival time, dose: 1.9 mg/kg/injection, schedule: Q01DX009 (ip), vehicle: Klucel (hydroxypropylcellulose) (HPC)
  T/C: 106 % of control [survivor count not shown]
T/C endpoint: mean survival time, dose: 2.0 mg/kg/injection, schedule: Q01DX009 (ip), vehicle: Klucel (hydroxypropylcellulose) (HPC)
  T/C: 117 % of control [survivor count not shown]
T/C endpoint: mean survival time, dose: 2.9 mg/kg/injection, schedule: Q01DX009 (ip), vehicle: Klucel (hydroxypropylcellulose) (HPC)
  T/C: 135 % of control [survivor count not shown]
T/C endpoint: mean survival time, dose: 3.75 mg/kg/injection, schedule: Q04DX003 (ip), vehicle: Klucel (hydroxypropylcellulose) (HPC)
  T/C: 96 % of control [survivor count not shown]
T/C endpoint: mean survival time, dose: 4.4 mg/kg/injection, schedule: Q01DX009 (ip), vehicle: Klucel (hydroxypropylcellulose) (HPC)
  T/C: 126 [survivor count not shown] and 139 % of control [survivor count not shown]
T/C endpoint: mean survival time, dose: 4.4 mg/kg/injection, schedule: Q04DX003 (ip), vehicle: Klucel (hydroxypropylcellulose) (HPC)
  T/C: 117 % of control [survivor count not shown]
T/C endpoint: mean survival time, dose: 6.6 mg/kg/injection, schedule: Q01DX009 (ip), vehicle: Klucel (hydroxypropylcellulose) (HPC)
  T/C: 112 [survivor count not shown] and 150 % of control [survivor count not shown]
T/C endpoint: mean survival time, dose: 6.6 mg/kg/injection, schedule: Q04DX003 (ip), vehicle: Klucel (hydroxypropylcellulose) (HPC)
  T/C: 139 [survivor count not shown] and 151 % of control [survivor count not shown]
T/C endpoint: mean survival time, dose: 7.5 mg/kg/injection, schedule: Q04DX003 (ip), vehicle: Klucel (hydroxypropylcellulose) (HPC)
  T/C: 100 % of control [survivor count not shown]
T/C endpoint: mean survival time, dose: 9.9 mg/kg/injection, schedule: Q01DX009 (ip), vehicle: Klucel (hydroxypropylcellulose) (HPC)
  T/C: 145 % of control [survivor count not shown]
T/C endpoint: mean survival time, dose: 10.0 mg/kg/injection, schedule: Q01DX009 (ip), vehicle: Klucel (hydroxypropylcellulose) (HPC)
  T/C: 99 % of control [survivor count not shown]
T/C endpoint: mean survival time, dose: 10.0 mg/kg/injection, schedule: Q04DX003 (ip), vehicle: Klucel (hydroxypropylcellulose) (HPC)
  T/C: 114 [survivor count not shown] and 115 % of control [survivor count not shown]
T/C endpoint: mean survival time, dose: 15.0 mg/kg/injection, schedule: Q01DX009 (ip), vehicle: Klucel (hydroxypropylcellulose) (HPC)
  T/C: 146 % of control [survivor count not shown]
T/C endpoint: mean survival time, dose: 15.0 mg/kg/injection, schedule: Q04DX003 (ip), vehicle: Klucel (hydroxypropylcellulose) (HPC)
  T/C: 108 [survivor count not shown], 134 [survivor count not shown], 159 % of control [survivor count not shown]
T/C endpoint: mean survival time, dose: 20.0 mg/kg/injection, schedule: Q04DX003 (ip), vehicle: Klucel (hydroxypropylcellulose) (HPC)
  T/C: 108 % of control [survivor count not shown]
T/C endpoint: mean survival time, dose: 22.0 mg/kg/injection, schedule: Q01DX009 (ip), vehicle: Klucel (hydroxypropylcellulose) (HPC)
  T/C: 146 % of control [survivor count not shown]

## O=S(=O)(c1ccccc1)N(CCCl)CCCl
T/C endpoint: median survival time, dose: 100.0 mg/kg/injection, schedule: Q01DX009 (ip), vehicle: Klucel (hydroxypropylcellulose) (HPC)
  T/C: 100 % of control [survivor count not shown]
T/C endpoint: median survival time, dose: 200.0 mg/kg/injection, schedule: Q01DX009 (ip), vehicle: Klucel (hydroxypropylcellulose) (HPC)
  T/C: 97 % of control [survivor count not shown]
T/C endpoint: median survival time, dose: 400.0 mg/kg/injection, schedule: Q01DX009 (ip), vehicle: Klucel (hydroxypropylcellulose) (HPC)
  T/C: 94 % of control [survivor count not shown]

## O=c1c2ccccc2ncn1CCN(CCCl)CCCl
T/C endpoint: mean survival time, dose: 50.0 mg/kg/injection, schedule: Q04DX002 (ip), vehicle: saline
  T/C: 125 % of control [survivor count not shown]
T/C endpoint: mean survival time, dose: 100.0 mg/kg/injection, schedule: Q04DX002 (ip), vehicle: saline
  T/C: 110 [survivor count not shown] and 159 % of control [survivor count not shown]
T/C endpoint: mean survival time, dose: 200.0 mg/kg/injection, schedule: Q04DX002 (ip), vehicle: saline
  T/C: 134 [survivor count not shown] and 141 % of control [survivor count not shown]
T/C endpoint: mean survival time, dose: 400.0 mg/kg/injection, schedule: Q04DX002 (ip), vehicle: saline
  T/C: 109 % of control [survivor count not shown]

## c1ccc(NC2CCN(C3CC3c3ccccc3)CC2)cc1 (stereo unspecified)
T/C endpoint: mean survival time, dose: 50.0 mg/kg/injection, schedule: Q01DX001 (ip), vehicle: Klucel (hydroxypropylcellulose) (HPC)
  T/C: 94 % of control [survivor count not shown]
T/C endpoint: mean survival time, dose: 100.0 mg/kg/injection, schedule: Q01DX001 (ip), vehicle: Klucel (hydroxypropylcellulose) (HPC)
  T/C: 97 % of control [survivor count not shown]
T/C endpoint: mean survival time, dose: 200.0 mg/kg/injection, schedule: Q01DX001 (ip), vehicle: Klucel (hydroxypropylcellulose) (HPC)
  T/C: 94 % of control [survivor count not shown]

## Nc1c(Cl)cc(CN(CCCl)CCCl)cc1Cl
T/C endpoint: mean survival time, dose: 100.0 mg/kg/injection, schedule: Q01DX001 (ip), vehicle: saline
  T/C: 106 % of control [survivor count not shown]
T/C endpoint: mean survival time, dose: 200.0 mg/kg/injection, schedule: Q01DX001 (ip), vehicle: saline
  T/C: 108 % of control [survivor count not shown]

## ClCCN1CCCCC1CCl (stereo unspecified)
T/C endpoint: mean survival time, dose: 0.31 mg/kg/injection, schedule: Q01DX009 (ip), vehicle: saline
  T/C: 118 % of control [survivor count not shown]
T/C endpoint: mean survival time, dose: 0.63 mg/kg/injection, schedule: Q01DX009 (ip), vehicle: saline
  T/C: 143 % of control [survivor count not shown]
T/C endpoint: mean survival time, dose: 0.63 mg/kg/injection, schedule: Q04DX003 (ip), vehicle: saline
  T/C: 120 % of control [survivor count not shown]
T/C endpoint: mean survival time, dose: 1.25 mg/kg/injection, schedule: Q04DX003 (ip), vehicle: saline
  T/C: 112 % of control [survivor count not shown]
